Data taken from publication PMC9373288.
Results are given in words; binding and its absence hold for the method and conditions named. In cells and extracts the contact can be indirect.

Amino acid sequences for entries named in this document (tags omitted). A change or cut given only in a name is not applied to a line headed by its entry. Residues count along the entry.
UniProt P17676: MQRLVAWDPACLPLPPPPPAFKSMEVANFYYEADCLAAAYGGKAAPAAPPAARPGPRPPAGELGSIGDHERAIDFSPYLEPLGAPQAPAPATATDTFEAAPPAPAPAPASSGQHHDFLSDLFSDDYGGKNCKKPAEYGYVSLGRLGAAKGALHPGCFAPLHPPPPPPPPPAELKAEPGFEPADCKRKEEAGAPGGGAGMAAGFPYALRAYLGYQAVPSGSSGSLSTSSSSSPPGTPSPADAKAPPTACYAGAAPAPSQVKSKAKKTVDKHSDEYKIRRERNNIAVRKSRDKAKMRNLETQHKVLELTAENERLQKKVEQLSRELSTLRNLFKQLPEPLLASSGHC
C/EBP-β LAP isoform, overexpressed in NCI-H2228 cells: residues 24-345 of P17676
C/EBP-β LIP isoform, overexpressed in NCI-H2228 cells: residues 199-345 of P17676
UniProt Q16665: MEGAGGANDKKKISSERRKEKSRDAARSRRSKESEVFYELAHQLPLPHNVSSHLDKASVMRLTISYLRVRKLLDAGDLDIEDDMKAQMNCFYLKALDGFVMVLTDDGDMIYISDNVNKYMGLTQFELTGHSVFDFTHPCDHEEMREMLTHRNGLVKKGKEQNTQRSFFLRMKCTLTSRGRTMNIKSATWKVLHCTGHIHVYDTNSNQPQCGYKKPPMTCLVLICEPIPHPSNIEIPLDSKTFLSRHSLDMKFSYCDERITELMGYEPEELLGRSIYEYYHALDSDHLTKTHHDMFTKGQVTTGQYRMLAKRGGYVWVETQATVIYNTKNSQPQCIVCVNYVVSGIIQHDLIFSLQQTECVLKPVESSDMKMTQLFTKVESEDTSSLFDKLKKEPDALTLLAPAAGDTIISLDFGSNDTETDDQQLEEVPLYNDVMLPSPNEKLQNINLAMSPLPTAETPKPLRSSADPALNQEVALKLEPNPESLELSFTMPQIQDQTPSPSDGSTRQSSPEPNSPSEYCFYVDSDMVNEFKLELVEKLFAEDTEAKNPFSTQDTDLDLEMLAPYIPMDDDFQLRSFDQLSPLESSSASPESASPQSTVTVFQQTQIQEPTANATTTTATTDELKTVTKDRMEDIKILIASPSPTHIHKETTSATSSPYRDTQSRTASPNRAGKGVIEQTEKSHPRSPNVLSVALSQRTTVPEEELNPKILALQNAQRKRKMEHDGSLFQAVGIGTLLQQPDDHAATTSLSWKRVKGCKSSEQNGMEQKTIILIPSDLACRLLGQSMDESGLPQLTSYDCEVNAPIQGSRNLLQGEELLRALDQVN

Experiments:
Assay in all cases: co-IP; 100 μg whole cell lysate of NCI-H2228 cells (wild-type, LAP+ or LIP+) immunoprecipitated overnight at 4 °C with anti-C/EBP-β (clone C-19, 1/50) and Protein A/G magnetic beads, blotted for HIF-1α; normoxic cells by the legend, hypoxic cells by the text
[1] = target: C/EBP-β LAP isoform, overexpressed in NCI-H2228 cells (UniProt P17676)
[2] = target: CCAAT/Enhancer Binding Protein-β (C/EBP-β), endogenous in wild-type NCI-H2228 cells (human (endogenous in NCI-H2228)) (UniProt P17676)
[3] = target: C/EBP-β LIP isoform, overexpressed in NCI-H2228 cells (UniProt P17676)

binding [1]: no binding | binding [2]: no binding | binding [3]: no binding
Substance: Hypoxia-inducible factor-1α (HIF-1α) (from UniProt Q16665 1-826)
